Test results reported in paper PMC10042821.
No constants are given. Whether binding was seen depends on the method and setting.

Protein sequences, listed by entry. Tags and fused reporters are not part of them. Lines headed by an entry give the natural chain unless they say otherwise; changes in a name come on top. Residues count along the entry.
UniProt P49366: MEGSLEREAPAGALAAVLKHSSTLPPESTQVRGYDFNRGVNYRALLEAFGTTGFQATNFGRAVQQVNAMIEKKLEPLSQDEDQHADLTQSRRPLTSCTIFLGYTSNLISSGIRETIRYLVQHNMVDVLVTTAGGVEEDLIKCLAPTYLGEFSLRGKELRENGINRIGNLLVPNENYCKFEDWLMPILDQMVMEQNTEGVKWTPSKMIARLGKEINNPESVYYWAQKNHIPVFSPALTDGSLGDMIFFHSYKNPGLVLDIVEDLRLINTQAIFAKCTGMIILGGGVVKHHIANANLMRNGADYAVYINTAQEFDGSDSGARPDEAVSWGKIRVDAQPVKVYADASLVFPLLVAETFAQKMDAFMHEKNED
UniProt P63241, residues 15-151: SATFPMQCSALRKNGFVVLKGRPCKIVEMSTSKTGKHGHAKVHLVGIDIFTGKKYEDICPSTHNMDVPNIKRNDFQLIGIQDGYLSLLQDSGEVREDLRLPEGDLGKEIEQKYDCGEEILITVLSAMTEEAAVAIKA

Legend:
Assay in all cases: MST; His-tagged DHS variants labelled with RED-tris-NTA 2nd Generation, 8.32 nM; eIF5A titrated, sixteen dilutions 0.00175–57.5 μM; 50 mM Tris, 200 mM NaCl, 5 mM β-ME pH 8; Monolith NT.115, 40% excitation power, 60% MST power; no NAD or SPD; both purified
[1] = target: deoxyhypusine synthase Y250A, His-tagged (human) (UniProt P49366)
[2] = target: deoxyhypusine synthase Q83A, His-tagged (human) (UniProt P49366)
[3] = target: deoxyhypusine synthase N173A, His-tagged (human) (UniProt P49366)
[4] = target: deoxyhypusine synthase F247A, His-tagged (human) (UniProt P49366)
[5] = target: deoxyhypusine synthase M244A, His-tagged (human) (UniProt P49366)

Measured: binding

eukaryotic translation factor 5A (eIF5A-1), residues 15-151 (from UniProt P63241 15-151) (domain or fragment)
no binding (tested: > 5 µM): all assays above
